Test results as given in the supplement of paper PMC12823440, “Inhibitors supercharge kinase turnover through native proteolytic circuits” (Nature, 2025).
Counter-ions that a name gives are not always drawn. This is one part of the list. The calls rarely recur for the same compound in another form.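 In K562 cells expressing nanoluciferase-fused kinases, luminescence was recorded at 4 h intervals between 2 and 18 h, normalized as percent of control with DMSO at 100% and a positive control at 0%. A significant (2 sigma) signal drop marks a time point as decreased. The authors' rule for a hit is not shown and takes in more than the number of time points.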

Chains of the proteins cited; added tags and fusions are not shown. Lines headed by an entry give the natural chain unless they say otherwise; changes in a name come on top.
UniProt P50613: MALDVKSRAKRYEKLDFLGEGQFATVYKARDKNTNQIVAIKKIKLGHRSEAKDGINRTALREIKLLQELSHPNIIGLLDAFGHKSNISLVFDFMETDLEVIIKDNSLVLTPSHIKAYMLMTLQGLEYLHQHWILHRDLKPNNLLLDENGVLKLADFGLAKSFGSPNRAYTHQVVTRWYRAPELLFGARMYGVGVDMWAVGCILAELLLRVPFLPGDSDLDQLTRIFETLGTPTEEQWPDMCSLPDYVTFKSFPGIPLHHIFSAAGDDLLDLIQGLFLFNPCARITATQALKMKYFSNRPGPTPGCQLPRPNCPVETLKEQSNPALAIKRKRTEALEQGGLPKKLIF
UniProt P50750, whole entry: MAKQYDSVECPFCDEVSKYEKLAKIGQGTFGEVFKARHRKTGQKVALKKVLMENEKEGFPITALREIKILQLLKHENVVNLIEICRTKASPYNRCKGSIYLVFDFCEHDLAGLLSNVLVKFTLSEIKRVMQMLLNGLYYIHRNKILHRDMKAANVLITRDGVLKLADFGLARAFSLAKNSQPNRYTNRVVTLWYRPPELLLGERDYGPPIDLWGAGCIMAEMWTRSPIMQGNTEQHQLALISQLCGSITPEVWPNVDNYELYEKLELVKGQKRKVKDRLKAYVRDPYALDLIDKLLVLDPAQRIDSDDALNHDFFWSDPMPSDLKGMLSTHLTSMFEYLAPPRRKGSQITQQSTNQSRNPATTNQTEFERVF
UniProt O96017, whole entry: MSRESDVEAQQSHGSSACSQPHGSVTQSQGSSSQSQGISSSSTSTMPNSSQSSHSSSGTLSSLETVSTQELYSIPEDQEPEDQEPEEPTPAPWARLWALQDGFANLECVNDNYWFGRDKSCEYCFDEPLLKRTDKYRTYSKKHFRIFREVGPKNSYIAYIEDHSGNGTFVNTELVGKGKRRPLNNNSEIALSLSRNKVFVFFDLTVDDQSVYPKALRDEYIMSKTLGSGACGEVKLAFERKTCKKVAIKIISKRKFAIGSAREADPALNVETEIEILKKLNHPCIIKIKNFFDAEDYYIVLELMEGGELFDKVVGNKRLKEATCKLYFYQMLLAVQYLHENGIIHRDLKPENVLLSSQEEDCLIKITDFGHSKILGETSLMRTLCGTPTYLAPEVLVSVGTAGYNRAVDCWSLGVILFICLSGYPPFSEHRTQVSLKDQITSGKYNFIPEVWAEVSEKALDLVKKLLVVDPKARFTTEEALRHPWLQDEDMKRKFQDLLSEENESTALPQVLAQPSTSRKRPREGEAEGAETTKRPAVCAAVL
UniProt P07333, whole entry: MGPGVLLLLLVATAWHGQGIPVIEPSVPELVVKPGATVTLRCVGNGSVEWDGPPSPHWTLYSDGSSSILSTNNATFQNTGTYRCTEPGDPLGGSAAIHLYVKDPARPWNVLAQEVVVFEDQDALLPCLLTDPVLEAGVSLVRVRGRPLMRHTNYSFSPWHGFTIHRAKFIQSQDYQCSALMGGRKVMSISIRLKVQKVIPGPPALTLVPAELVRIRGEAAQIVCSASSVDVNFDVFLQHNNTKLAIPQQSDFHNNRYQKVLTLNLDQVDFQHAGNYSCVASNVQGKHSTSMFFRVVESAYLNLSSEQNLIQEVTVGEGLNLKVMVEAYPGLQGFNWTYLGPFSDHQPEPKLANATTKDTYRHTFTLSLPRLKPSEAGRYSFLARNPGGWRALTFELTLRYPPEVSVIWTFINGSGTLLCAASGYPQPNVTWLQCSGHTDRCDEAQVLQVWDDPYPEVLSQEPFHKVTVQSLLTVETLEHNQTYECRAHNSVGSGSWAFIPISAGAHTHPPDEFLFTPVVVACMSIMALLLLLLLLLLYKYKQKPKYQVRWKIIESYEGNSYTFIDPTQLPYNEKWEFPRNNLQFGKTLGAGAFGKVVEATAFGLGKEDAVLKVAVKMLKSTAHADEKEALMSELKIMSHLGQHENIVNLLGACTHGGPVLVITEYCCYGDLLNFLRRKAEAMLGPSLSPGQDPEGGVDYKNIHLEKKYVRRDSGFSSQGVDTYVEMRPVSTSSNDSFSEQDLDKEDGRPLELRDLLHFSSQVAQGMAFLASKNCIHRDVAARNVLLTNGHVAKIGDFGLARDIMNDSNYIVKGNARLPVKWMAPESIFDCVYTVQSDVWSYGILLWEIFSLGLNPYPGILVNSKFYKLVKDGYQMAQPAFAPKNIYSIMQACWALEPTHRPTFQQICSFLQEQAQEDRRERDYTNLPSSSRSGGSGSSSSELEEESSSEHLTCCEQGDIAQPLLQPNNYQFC
UniProt P41240: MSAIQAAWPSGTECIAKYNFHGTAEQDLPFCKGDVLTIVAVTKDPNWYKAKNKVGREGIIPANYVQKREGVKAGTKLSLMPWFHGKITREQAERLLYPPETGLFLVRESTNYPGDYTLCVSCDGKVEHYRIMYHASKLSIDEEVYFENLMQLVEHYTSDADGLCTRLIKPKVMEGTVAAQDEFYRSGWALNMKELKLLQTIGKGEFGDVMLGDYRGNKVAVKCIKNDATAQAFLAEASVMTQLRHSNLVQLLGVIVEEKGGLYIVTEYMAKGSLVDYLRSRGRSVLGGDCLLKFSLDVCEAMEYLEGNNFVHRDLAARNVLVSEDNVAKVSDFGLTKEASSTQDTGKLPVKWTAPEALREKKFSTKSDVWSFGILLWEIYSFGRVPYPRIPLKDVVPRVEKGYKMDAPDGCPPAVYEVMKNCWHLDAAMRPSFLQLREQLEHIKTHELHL
UniProt P48730: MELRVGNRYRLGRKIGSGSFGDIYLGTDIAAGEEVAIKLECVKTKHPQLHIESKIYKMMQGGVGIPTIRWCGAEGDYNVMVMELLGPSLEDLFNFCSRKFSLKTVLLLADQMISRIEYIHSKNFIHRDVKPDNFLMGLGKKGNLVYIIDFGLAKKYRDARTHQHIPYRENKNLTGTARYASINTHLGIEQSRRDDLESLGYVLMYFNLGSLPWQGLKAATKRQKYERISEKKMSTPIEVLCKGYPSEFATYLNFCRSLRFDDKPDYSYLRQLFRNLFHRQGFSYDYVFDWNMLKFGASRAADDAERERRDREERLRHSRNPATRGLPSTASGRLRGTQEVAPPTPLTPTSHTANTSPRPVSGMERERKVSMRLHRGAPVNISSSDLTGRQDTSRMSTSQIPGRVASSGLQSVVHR
UniProt Q08345: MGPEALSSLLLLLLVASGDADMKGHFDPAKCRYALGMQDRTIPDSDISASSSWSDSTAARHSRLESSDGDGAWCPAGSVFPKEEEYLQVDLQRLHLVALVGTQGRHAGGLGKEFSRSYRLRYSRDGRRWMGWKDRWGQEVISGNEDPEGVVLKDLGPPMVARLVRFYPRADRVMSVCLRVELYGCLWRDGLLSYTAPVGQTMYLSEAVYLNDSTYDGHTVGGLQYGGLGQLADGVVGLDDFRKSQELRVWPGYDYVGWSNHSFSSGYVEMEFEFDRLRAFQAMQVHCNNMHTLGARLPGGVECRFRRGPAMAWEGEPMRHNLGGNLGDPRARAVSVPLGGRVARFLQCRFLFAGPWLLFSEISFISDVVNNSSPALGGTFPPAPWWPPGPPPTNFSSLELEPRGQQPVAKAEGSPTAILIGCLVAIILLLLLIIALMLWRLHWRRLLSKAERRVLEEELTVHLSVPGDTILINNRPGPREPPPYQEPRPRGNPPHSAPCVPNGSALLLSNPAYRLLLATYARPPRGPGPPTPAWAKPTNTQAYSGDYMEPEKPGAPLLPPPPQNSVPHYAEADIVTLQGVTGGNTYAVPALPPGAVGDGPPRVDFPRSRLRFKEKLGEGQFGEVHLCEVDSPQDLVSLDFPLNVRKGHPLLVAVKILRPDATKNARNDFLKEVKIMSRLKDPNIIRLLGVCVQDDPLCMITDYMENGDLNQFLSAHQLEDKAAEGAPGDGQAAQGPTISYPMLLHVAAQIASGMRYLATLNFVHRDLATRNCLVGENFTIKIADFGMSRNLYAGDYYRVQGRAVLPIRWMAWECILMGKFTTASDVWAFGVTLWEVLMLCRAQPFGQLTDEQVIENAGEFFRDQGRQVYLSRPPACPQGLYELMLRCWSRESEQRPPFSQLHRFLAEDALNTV
UniProt Q9Y463, whole entry, looked up: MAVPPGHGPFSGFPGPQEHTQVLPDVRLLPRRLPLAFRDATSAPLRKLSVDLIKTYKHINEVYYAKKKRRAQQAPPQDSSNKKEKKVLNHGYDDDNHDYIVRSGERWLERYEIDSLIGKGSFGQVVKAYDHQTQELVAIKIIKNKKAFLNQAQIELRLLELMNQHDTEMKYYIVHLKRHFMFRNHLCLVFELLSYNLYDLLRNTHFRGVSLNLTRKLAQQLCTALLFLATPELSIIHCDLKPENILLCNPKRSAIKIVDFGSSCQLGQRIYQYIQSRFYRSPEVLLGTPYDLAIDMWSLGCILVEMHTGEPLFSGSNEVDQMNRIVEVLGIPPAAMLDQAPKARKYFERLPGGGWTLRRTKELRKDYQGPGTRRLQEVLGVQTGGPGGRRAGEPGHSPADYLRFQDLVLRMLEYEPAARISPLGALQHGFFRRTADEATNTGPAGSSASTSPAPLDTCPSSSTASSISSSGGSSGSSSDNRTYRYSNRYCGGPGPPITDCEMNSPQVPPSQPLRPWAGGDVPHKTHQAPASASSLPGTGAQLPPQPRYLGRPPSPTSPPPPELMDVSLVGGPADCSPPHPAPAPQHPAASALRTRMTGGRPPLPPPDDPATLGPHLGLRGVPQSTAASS
UniProt Q92630: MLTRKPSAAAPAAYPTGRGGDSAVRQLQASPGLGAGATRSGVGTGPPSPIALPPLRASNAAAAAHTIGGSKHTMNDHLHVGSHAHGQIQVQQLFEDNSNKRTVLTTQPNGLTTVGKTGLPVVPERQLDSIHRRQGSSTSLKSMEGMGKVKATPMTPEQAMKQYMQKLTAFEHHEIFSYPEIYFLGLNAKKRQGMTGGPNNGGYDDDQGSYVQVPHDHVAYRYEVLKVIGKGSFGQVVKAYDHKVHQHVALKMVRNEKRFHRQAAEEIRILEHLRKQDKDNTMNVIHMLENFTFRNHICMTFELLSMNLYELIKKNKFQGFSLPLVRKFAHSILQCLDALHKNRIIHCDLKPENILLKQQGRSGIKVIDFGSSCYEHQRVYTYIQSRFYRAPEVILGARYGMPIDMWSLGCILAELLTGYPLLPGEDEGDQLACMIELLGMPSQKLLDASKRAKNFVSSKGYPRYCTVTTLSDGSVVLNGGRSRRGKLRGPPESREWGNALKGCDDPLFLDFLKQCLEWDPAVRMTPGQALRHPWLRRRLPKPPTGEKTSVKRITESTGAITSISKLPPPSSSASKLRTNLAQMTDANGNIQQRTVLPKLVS
UniProt Q15303, whole entry R711C: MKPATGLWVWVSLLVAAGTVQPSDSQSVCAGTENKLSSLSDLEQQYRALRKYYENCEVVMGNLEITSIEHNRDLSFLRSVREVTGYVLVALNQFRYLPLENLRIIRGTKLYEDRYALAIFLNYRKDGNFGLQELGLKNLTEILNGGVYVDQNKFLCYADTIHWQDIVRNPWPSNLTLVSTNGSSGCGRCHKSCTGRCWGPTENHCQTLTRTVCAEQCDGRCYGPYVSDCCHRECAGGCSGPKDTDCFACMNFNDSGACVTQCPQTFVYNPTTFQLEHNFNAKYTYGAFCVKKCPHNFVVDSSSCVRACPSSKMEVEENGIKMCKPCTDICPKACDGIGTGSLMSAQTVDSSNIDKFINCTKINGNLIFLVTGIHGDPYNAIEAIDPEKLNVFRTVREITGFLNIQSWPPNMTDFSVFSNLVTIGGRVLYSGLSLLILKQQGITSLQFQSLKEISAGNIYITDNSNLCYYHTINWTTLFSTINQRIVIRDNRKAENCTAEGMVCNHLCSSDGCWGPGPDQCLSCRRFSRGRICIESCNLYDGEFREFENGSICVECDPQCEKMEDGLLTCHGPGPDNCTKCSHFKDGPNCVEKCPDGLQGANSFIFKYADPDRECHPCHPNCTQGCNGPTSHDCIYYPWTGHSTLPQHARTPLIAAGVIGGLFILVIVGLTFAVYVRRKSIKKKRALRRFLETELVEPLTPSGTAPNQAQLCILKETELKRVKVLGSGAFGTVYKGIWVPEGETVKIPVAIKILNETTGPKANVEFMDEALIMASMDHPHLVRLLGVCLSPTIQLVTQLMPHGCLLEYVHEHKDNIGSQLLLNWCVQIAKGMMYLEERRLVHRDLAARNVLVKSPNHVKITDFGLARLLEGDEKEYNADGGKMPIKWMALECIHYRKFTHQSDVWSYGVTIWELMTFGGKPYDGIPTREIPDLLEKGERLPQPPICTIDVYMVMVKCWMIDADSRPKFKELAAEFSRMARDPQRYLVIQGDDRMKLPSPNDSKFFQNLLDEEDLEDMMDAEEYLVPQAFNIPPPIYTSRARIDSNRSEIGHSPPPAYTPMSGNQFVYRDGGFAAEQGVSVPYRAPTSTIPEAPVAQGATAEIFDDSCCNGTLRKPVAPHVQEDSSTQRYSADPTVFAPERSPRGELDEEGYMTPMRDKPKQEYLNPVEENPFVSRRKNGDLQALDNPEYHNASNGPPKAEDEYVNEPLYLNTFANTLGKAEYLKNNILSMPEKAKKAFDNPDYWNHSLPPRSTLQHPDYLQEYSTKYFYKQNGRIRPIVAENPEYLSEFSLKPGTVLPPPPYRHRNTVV

Legend:
Assay in all cases: kinase-Nluc reporter destabilization hit call (1 = scored as downregulated) (binary); higher = compound decreases kinase abundance
Conditions in all cases: K562; 2-18 h
CDK7 = CDK7 (UniProt P50613)
CDK9 = CDK9 (UniProt P50750)
CHEK2 = CHEK2 (UniProt O96017)
CSF1R = CSF1R (UniProt P07333)
CSK = CSK (UniProt P41240)
CSNK1A1 = CSNK1A1 (UniProt P48729)
CSNK1D = CSNK1D (UniProt P48730)
DDR1 = DDR1 (UniProt Q08345)
DYRK1B = DYRK1B (UniProt Q9Y463)
DYRK2 = DYRK2 (UniProt Q92630)
EGFR = EGFR (UniProt P00533)
EGFR_G719S = EGFR_G719S (UniProt P00533)
EGFR_G719S_T790M = EGFR_G719S_T790M (UniProt P00533)
EGFR_L718V = EGFR_L718V (UniProt P00533)
EGFR_L858R = EGFR_L858R (UniProt P00533)
EGFR_L861Q = EGFR_L861Q (UniProt P00533)
EGFR_T790M = EGFR_T790M (UniProt P00533)
EPHA2 = EPHA2 (UniProt P29317)
ERBB3 = ERBB3 (UniProt P21860)
[1] = target: ERBB4_R711C (clone: ERBB4_mut) (UniProt Q15303)

Measured: kinase-Nluc reporter destabilization hit call

COc1ncc2cc(C(=O)Nc3cc(C(=O)NCc4cccc(Cl)c4)ccc3Cl)c(=O)[nH]c2n1 (2.5 µM)
inactive: CDK7 = 0 | CDK9 = 0 | CHEK2 = 0 | CSF1R 0 | CSK 0 | CSNK1A1 = 0 | CSNK1D 0 | DDR1 = 0 | DYRK1B 0 | DYRK2 = 0 | EGFR 0 | EGFR_G719S 0 | EGFR_G719S_T790M 0 | EGFR_L718V 0 | EGFR_L858R 0 | EGFR_L861Q 0 | EGFR_T790M 0 | EPHA2 = 0 | ERBB3 = 0 | [1] 0

Cc1cc(F)c(Nc2ncnc3cc(OCc4ccccc4)ccc23)cc1O (10 µM)
inactive: CDK7 = 0 | CDK9 = 0 | CHEK2 = 0 | CSF1R 0 | CSK 0 | CSNK1A1 = 0 | CSNK1D 0 | DDR1 = 0 | DYRK1B 0 | DYRK2 = 0 | EGFR 0 | EGFR_G719S 0 | EGFR_G719S_T790M 0 | EGFR_L718V 0 | EGFR_L858R 0 | EGFR_L861Q 0 | EGFR_T790M 0 | EPHA2 = 0 | ERBB3 = 0 | [1] 0

N#Cc1cn([C@@H]2O[C@H](CO)[C@@H](O)[C@H]2O)c2nc[nH]c(=O)c12 [Jaspamycin] (10 µM)
inactive: CDK7 = 0 | CDK9 = 0 | CHEK2 = 0 | CSF1R 0 | CSK 0 | CSNK1A1 = 0 | CSNK1D 0 | DDR1 = 0 | DYRK1B 0 | DYRK2 = 0 | EGFR 0 | EGFR_G719S 0 | EGFR_G719S_T790M 0 | EGFR_L718V 0 | EGFR_L858R 0 | EGFR_L861Q 0 | EGFR_T790M 0 | EPHA2 = 0 | ERBB3 = 0 | [1] 0

O=c1sn(-c2cccc3ccccc23)c(=O)n1Cc1ccccc1 [Tideglusib] (10 µM)
inactive: CDK7 = 0 | CDK9 = 0 | CHEK2 = 0 | CSF1R 0 | CSK 0 | CSNK1A1 = 0 | CSNK1D 0 | DDR1 = 0 | DYRK1B 0 | DYRK2 = 0 | EGFR 0 | EGFR_G719S 0 | EGFR_G719S_T790M 0 | EGFR_L718V 0 | EGFR_L858R 0 | EGFR_L861Q 0 | EGFR_T790M 0 | EPHA2 = 0 | ERBB3 = 0 | [1] 0

Oc1ccc2ccccc2c1SSc1c(O)ccc2ccccc12 (10 µM)
inactive: CDK7 = 0 | CDK9 = 0 | CHEK2 = 0 | CSF1R 0 | CSK 0 | CSNK1A1 = 0 | CSNK1D 0 | DDR1 = 0 | DYRK1B 0 | DYRK2 = 0 | EGFR 0 | EGFR_G719S 0 | EGFR_G719S_T790M 0 | EGFR_L718V 0 | EGFR_L858R 0 | EGFR_L861Q 0 | EGFR_T790M 0 | EPHA2 = 0 | ERBB3 = 0 | [1] 0

Cc1cc(/C=C2\CC/C(=C\c3cc(C)c(O)c(C)c3)C2=O)cc(C)c1O [Pentagamavunon-1] (2.5 µM)
inactive: CDK7 = 0 | CDK9 = 0 | CHEK2 = 0 | CSF1R 0 | CSK 0 | CSNK1A1 = 0 | CSNK1D 0 | DDR1 = 0 | DYRK1B 0 | DYRK2 = 0 | EGFR 0 | EGFR_G719S 0 | EGFR_G719S_T790M 0 | EGFR_L718V 0 | EGFR_L858R 0 | EGFR_L861Q 0 | EGFR_T790M 0 | EPHA2 = 0 | ERBB3 = 0 | [1] 0

CN1CCN(c2ccc(NC(=O)c3ccc(C#N)o3)c(N3CCCCC3)c2)CC1 (10 µM)
inactive: CDK7 = 0 | CDK9 = 0 | CHEK2 = 0 | CSF1R 0 | CSK 0 | CSNK1A1 = 0 | CSNK1D 0 | DDR1 = 0 | DYRK1B 0 | DYRK2 = 0 | EGFR 0 | EGFR_G719S 0 | EGFR_G719S_T790M 0 | EGFR_L718V 0 | EGFR_L858R 0 | EGFR_L861Q 0 | EGFR_T790M 0 | EPHA2 = 0 | ERBB3 = 0 | [1] 0

Cc1c(C(=O)Nc2ccc(Oc3ccnc4cc(OCC(C)(C)O)ccc34)c(F)c2)c(=O)n(-c2ccccc2)n1C [Ningetinib Tosylate] (10 µM)
inactive: CDK7 = 0 | CDK9 = 0 | CHEK2 = 0 | CSF1R 0 | CSK 0 | CSNK1A1 = 0 | CSNK1D 0 | DDR1 = 0 | DYRK1B 0 | DYRK2 = 0 | EGFR 0 | EGFR_G719S 0 | EGFR_G719S_T790M 0 | EGFR_L718V 0 | EGFR_L858R 0 | EGFR_L861Q 0 | EGFR_T790M 0 | EPHA2 = 0 | ERBB3 = 0 | [1] 0

C=CC(=O)Nc1cccc(Oc2nc(Nc3ccc(N4CCN(C)CC4)cc3)ncc2Cl)c1 (2.5 µM)
inactive: CDK7 = 0 | CDK9 = 0 | CHEK2 = 0 | CSF1R 0 | CSK 0 | CSNK1A1 = 0 | CSNK1D 0 | DDR1 = 0 | DYRK1B 0 | DYRK2 = 0 | EGFR 0 | EGFR_G719S 0 | EGFR_G719S_T790M 0 | EGFR_L718V 0 | EGFR_L858R 0 | EGFR_L861Q 0 | EGFR_T790M 0 | EPHA2 = 0 | ERBB3 = 0 | [1] 0

CCn1c(-c2nonc2N)nc2c(C#CCO)ncc(OCCCN)c21 [AKT Kinase Inhibitor] (10 µM)
inactive: CDK7 = 0 | CDK9 = 0 | CHEK2 = 0 | CSF1R 0 | CSK 0 | CSNK1A1 = 0 | CSNK1D 0 | DDR1 = 0 | DYRK1B 0 | DYRK2 = 0 | EGFR 0 | EGFR_G719S 0 | EGFR_G719S_T790M 0 | EGFR_L718V 0 | EGFR_L858R 0 | EGFR_L861Q 0 | EGFR_T790M 0 | EPHA2 = 0 | ERBB3 = 0 | [1] 0

CN(C/C=C/C(=O)Nc1ccc(C(=O)Nc2cccc(Nc3ncc(Cl)c(-c4c[nH]c5ccccc45)n3)c2)cc1)CCCNC(=O)NCCOCCOCCOCCNC(=O)CCCC[C@@H]1SC[C@@H]2NC(=O)N[C@@H]21 (2.5 µM)
inactive: CDK7 = 0 | CDK9 = 0 | CHEK2 = 0 | CSF1R 0 | CSK 0 | CSNK1A1 = 0 | CSNK1D 0 | DDR1 = 0 | DYRK1B 0 | DYRK2 = 0 | EGFR 0 | EGFR_G719S 0 | EGFR_G719S_T790M 0 | EGFR_L718V 0 | EGFR_L858R 0 | EGFR_L861Q 0 | EGFR_T790M 0 | EPHA2 = 0 | ERBB3 = 0 | [1] 0

O=C(N/N=C/c1ccc([N+](=O)[O-])o1)c1ccc(O)cc1 [Nifuroxazide] (10 µM)
inactive: CDK7 = 0 | CDK9 = 0 | CHEK2 = 0 | CSF1R 0 | CSK 0 | CSNK1A1 = 0 | CSNK1D 0 | DDR1 = 0 | DYRK1B 0 | DYRK2 = 0 | EGFR 0 | EGFR_G719S 0 | EGFR_G719S_T790M 0 | EGFR_L718V 0 | EGFR_L858R 0 | EGFR_L861Q 0 | EGFR_T790M 0 | EPHA2 = 0 | ERBB3 = 0 | [1] 0

O=C(CC(c1ccccc1)C(C(=O)O)C(=O)O)c1ccc(C(F)(F)F)cc1 (stereo not given) (10 µM)
inactive: CDK7 = 0 | CDK9 = 0 | CHEK2 = 0 | CSF1R 0 | CSK 0 | CSNK1A1 = 0 | CSNK1D 0 | DDR1 = 0 | DYRK1B 0 | DYRK2 = 0 | EGFR 0 | EGFR_G719S 0 | EGFR_G719S_T790M 0 | EGFR_L718V 0 | EGFR_L858R 0 | EGFR_L861Q 0 | EGFR_T790M 0 | EPHA2 = 0 | ERBB3 = 0 | [1] 0

2 successive records out of the list so far, quoted:
O=C(N/N=C/c1ccc([N+](=O)[O-])o1)c1ccc(O)cc1 [Nifuroxazide] (10 µM)
inactive: CDK7 = 0 | CDK9 = 0 | CHEK2 = 0 | CSF1R 0 | CSK 0 | CSNK1A1 = 0 | CSNK1D 0 | DDR1 = 0 | DYRK1B 0 | DYRK2 = 0 | EGFR 0 | EGFR_G719S 0 | EGFR_G719S_T790M 0 | EGFR_L718V 0 | EGFR_L858R 0 | EGFR_L861Q 0 | EGFR_T790M 0 | EPHA2 = 0 | ERBB3 = 0 | [1] 0

O=C(CC(c1ccccc1)C(C(=O)O)C(=O)O)c1ccc(C(F)(F)F)cc1 (stereo not given) (10 µM)
inactive: CDK7 = 0 | CDK9 = 0 | CHEK2 = 0 | CSF1R 0 | CSK 0 | CSNK1A1 = 0 | CSNK1D 0 | DDR1 = 0 | DYRK1B 0 | DYRK2 = 0 | EGFR 0 | EGFR_G719S 0 | EGFR_G719S_T790M 0 | EGFR_L718V 0 | EGFR_L858R 0 | EGFR_L861Q 0 | EGFR_T790M 0 | EPHA2 = 0 | ERBB3 = 0 | [1] 0

Remaining list, next part

CCC(=O)N1CC[C@H](Nc2ncnc3c2CN(c2cnc(OC)c(C(F)(F)F)c2)CC3)C1 [Leniolisib] (10 µM)
inactive: CDK7 = 0 | CDK9 = 0 | CHEK2 = 0 | CSF1R 0 | CSK 0 | CSNK1A1 = 0 | CSNK1D 0 | DDR1 = 0 | DYRK1B 0 | DYRK2 = 0 | EGFR 0 | EGFR_G719S 0 | EGFR_G719S_T790M 0 | EGFR_L718V 0 | EGFR_L858R 0 | EGFR_L861Q 0 | EGFR_T790M 0 | EPHA2 = 0 | ERBB3 = 0 | [1] 0

CNC(=O)c1ccc(-c2cnc3ncc(Cc4ccc5ncccc5c4)n3n2)cc1F [Capmatinib] (10 µM)
inactive: CDK7 = 0 | CDK9 = 0 | CHEK2 = 0 | CSF1R 0 | CSK 0 | CSNK1A1 = 0 | CSNK1D 0 | DDR1 = 0 | DYRK1B 0 | DYRK2 = 0 | EGFR 0 | EGFR_G719S 0 | EGFR_G719S_T790M 0 | EGFR_L718V 0 | EGFR_L858R 0 | EGFR_L861Q 0 | EGFR_T790M 0 | EPHA2 = 0 | ERBB3 = 0 | [1] 0

COC(=O)[C@]1(C)CC[C@]2(C(=O)O[C@@H]3O[C@H](CO)[C@@H](O)[C@H](O)[C@H]3O)CC[C@]3(C)C(=CC[C@@H]4[C@@]5(C)C[C@H](O)[C@H](O[C@@H]6OC[C@@H](O[C@@H]7O[C@H](CO)[C@@H](O)[C@H](O)[C@H]7O)[C@H](O)[C@H]6O)[C@@](C)(CO)C5CC[C@]43C)[C@H]2C1 (stereo not given in full) [Esculentoside H] (10 µM)
inactive: CDK7 = 0 | CDK9 = 0 | CHEK2 = 0 | CSF1R 0 | CSK 0 | CSNK1A1 = 0 | CSNK1D 0 | DDR1 = 0 | DYRK1B 0 | DYRK2 = 0 | EGFR 0 | EGFR_G719S 0 | EGFR_G719S_T790M 0 | EGFR_L718V 0 | EGFR_L858R 0 | EGFR_L861Q 0 | EGFR_T790M 0 | EPHA2 = 0 | ERBB3 = 0 | [1] 0

Cn1c(=O)c(Oc2ccc(F)cc2F)cc2cnc(NC(CCO)CCO)nc21 [Pamapimod] (10 µM)
inactive: CDK7 = 0 | CDK9 = 0 | CHEK2 = 0 | CSF1R 0 | CSK 0 | CSNK1A1 = 0 | CSNK1D 0 | DDR1 = 0 | DYRK1B 0 | DYRK2 = 0 | EGFR 0 | EGFR_G719S 0 | EGFR_G719S_T790M 0 | EGFR_L718V 0 | EGFR_L858R 0 | EGFR_L861Q 0 | EGFR_T790M 0 | EPHA2 = 0 | ERBB3 = 0 | [1] 0
